Results as given in the supplement of paper PMC12819154, “High-throughput peptide-centric local stability assay extends protein–ligand identification to membrane proteins, tissues and bacteria” (Nature Structural & Molecular Biology, 2025).
This is one part of the list. Most entries show no effect beyond the scatter of the controls.

The chains behind the UniProt entries cited, without tags or fusion partners. Where a name states a change or a piece, a line headed by the entry shows the natural chain unless it says otherwise.
UniProt Q9QZ49: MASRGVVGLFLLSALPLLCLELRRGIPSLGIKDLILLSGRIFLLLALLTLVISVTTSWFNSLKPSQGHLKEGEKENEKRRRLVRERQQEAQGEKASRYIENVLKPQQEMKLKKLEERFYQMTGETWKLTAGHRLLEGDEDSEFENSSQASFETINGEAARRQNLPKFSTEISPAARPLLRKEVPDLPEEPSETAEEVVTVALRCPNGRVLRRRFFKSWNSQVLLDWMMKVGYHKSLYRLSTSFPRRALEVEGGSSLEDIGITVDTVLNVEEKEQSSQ
UniProt Q9QXK2, whole entry: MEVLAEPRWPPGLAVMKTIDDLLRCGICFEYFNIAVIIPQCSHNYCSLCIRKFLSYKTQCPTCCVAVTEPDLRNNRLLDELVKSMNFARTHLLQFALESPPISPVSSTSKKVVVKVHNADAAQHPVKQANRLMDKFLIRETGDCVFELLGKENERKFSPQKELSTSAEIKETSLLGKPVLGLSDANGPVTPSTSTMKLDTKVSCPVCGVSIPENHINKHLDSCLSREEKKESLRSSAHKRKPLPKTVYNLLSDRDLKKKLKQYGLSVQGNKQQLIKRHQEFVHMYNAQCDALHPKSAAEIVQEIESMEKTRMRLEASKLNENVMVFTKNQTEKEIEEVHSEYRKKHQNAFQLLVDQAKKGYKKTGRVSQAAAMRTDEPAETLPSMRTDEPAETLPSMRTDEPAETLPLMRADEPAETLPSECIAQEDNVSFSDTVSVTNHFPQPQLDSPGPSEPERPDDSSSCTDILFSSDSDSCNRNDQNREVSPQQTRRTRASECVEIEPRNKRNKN
UniProt Q9QZB7, whole entry: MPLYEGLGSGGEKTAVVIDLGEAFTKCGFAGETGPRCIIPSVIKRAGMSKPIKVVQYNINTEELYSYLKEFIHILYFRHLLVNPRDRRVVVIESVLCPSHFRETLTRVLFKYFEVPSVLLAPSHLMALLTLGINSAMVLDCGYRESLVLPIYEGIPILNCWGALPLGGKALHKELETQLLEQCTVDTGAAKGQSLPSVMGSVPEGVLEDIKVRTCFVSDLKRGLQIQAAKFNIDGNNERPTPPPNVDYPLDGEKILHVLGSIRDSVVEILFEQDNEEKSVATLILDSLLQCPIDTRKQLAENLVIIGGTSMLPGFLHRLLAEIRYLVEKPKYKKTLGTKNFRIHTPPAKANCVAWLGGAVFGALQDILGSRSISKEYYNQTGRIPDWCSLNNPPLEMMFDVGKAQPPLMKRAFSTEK
UniProt Q9QYK7: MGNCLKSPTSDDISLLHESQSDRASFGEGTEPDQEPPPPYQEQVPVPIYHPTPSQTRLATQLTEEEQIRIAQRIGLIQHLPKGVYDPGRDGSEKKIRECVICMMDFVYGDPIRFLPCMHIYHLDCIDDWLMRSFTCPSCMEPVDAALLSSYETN
UniProt Q9R0Q4, whole entry: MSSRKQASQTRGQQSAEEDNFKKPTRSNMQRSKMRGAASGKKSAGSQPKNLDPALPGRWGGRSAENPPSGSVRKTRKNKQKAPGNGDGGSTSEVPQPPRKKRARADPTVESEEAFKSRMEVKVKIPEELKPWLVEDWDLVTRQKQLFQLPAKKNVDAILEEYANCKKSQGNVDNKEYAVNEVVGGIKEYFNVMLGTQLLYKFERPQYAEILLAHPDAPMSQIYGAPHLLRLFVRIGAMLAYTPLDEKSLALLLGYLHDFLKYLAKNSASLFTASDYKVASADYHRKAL
UniProt Q9R0M6: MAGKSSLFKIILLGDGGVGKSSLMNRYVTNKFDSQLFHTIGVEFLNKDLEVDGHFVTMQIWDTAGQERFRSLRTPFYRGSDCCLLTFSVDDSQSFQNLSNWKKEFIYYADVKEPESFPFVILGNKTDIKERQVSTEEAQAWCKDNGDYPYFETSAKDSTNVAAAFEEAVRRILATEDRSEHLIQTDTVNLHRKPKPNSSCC
UniProt Q9WTP2: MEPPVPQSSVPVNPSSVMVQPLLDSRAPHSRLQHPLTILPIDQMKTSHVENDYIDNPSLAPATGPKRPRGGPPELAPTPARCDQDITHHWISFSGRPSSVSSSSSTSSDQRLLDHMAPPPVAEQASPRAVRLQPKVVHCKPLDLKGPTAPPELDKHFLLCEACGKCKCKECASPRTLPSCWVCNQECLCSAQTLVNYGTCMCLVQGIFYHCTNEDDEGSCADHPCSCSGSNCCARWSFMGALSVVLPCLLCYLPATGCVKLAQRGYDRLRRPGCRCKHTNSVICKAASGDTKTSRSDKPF
UniProt Q9WUM5: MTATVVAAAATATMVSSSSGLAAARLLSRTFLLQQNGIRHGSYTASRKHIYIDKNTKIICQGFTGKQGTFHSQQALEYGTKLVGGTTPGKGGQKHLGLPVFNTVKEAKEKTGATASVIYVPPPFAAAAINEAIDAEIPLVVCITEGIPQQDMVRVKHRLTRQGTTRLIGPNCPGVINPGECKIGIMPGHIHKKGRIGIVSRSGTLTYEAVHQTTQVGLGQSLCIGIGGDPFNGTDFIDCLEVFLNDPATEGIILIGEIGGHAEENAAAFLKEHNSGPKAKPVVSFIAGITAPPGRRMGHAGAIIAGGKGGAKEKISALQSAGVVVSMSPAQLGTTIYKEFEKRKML
UniProt Q9QY24: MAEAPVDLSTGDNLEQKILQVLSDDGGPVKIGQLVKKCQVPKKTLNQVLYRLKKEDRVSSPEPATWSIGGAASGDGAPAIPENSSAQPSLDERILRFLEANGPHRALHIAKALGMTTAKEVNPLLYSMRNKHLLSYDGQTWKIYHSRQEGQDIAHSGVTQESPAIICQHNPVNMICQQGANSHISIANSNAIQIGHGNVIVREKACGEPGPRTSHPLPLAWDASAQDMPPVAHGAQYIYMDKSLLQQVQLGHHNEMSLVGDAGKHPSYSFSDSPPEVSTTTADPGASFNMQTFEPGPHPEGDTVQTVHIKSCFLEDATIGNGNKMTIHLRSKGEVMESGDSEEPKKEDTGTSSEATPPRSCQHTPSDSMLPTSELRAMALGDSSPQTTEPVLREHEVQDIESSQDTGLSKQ
UniProt Q9WUE4: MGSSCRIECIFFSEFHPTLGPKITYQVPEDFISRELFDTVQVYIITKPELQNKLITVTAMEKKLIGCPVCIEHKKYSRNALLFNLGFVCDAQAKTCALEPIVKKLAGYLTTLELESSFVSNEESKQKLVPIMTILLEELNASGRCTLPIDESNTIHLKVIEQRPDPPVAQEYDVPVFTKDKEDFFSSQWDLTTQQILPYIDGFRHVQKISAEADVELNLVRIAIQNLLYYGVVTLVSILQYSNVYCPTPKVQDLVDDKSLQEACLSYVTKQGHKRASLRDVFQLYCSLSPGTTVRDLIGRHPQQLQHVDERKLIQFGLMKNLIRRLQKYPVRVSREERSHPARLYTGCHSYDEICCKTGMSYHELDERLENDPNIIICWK
UniProt Q9R0E2: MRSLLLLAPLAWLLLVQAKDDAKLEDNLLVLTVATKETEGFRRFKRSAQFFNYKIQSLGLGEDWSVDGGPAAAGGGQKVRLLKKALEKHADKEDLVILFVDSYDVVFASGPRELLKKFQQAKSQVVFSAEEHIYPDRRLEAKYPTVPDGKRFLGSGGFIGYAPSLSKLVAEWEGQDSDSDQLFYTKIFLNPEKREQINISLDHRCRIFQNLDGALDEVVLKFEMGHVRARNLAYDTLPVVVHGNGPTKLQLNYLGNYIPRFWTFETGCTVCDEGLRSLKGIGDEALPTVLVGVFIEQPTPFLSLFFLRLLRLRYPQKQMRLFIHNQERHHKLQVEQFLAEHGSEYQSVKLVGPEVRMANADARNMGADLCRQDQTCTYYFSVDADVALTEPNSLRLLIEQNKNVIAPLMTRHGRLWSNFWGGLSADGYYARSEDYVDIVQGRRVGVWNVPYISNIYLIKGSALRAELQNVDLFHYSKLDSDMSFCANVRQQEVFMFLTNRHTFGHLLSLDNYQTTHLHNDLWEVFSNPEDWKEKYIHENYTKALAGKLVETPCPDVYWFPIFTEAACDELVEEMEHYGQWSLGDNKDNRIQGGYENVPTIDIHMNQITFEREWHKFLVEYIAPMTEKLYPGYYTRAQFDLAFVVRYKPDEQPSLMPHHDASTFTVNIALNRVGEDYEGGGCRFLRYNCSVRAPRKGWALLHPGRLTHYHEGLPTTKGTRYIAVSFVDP
UniProt Q9R194: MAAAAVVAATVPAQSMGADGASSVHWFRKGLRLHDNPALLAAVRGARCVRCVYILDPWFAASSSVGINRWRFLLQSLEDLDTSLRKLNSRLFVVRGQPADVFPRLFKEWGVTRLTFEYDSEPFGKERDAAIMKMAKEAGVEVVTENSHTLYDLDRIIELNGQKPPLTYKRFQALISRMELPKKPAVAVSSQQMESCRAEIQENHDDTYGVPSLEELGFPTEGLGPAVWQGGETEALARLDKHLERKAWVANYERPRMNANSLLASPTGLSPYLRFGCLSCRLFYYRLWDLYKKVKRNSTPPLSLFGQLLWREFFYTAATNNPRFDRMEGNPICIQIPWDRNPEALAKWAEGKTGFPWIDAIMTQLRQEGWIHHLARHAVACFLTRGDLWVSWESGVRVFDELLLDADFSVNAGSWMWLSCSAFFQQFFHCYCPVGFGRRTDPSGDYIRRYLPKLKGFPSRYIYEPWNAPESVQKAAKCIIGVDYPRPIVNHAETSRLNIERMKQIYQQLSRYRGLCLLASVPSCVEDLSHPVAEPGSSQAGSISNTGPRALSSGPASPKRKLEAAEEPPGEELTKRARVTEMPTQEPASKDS
UniProt Q9QY81: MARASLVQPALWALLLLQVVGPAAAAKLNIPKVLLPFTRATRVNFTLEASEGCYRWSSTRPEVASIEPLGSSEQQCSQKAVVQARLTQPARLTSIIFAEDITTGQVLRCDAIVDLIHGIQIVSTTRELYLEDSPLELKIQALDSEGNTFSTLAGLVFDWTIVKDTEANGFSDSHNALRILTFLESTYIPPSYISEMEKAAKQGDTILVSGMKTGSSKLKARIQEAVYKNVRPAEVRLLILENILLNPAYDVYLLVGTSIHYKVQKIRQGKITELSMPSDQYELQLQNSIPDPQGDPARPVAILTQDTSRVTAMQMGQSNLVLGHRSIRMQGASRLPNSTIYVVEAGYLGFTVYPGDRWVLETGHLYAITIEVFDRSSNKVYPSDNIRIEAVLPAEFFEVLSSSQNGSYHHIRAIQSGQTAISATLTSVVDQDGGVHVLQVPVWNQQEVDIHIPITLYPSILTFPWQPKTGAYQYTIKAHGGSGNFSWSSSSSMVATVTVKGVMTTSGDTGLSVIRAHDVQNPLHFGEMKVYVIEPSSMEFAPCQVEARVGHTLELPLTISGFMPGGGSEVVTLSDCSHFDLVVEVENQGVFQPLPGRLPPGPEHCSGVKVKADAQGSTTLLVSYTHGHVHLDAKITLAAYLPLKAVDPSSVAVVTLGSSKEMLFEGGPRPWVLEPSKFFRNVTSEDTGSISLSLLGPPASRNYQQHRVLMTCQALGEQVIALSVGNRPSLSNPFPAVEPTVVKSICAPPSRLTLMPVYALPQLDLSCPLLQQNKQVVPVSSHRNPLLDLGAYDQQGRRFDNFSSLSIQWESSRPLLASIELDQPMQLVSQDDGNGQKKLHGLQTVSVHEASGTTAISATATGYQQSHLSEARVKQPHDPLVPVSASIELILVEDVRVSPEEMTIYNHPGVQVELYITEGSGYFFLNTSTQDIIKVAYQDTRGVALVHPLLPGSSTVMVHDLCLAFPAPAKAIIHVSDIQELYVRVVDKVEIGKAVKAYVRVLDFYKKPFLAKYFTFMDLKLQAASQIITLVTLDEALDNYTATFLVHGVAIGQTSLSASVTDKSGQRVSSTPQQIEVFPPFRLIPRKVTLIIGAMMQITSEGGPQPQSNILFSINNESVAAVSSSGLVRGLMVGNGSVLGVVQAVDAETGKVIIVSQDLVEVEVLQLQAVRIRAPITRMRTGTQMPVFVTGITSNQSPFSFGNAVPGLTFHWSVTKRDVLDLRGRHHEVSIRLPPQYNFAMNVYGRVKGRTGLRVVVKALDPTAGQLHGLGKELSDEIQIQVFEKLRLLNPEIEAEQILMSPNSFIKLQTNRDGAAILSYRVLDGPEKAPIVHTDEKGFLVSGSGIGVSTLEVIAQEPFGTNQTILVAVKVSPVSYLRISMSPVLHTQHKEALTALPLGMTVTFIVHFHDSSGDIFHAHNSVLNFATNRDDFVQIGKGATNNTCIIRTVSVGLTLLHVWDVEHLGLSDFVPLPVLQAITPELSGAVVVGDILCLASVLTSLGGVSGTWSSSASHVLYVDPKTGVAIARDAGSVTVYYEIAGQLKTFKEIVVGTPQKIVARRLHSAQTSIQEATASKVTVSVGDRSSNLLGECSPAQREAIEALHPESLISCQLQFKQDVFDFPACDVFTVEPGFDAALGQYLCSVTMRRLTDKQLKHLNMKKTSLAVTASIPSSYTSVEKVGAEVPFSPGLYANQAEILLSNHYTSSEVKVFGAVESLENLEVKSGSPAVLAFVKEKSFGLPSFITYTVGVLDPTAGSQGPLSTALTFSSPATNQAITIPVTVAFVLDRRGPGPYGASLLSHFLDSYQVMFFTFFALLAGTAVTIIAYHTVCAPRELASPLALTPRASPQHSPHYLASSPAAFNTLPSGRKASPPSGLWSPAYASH

Compound: CN[C@@H]1C[C@H]2O[C@@](C)([C@@H]1OC)n1c3ccccc3c3c4c(c5c6ccccc6n2c5c31)C(=O)NC4 [staurosporine]
Assay: log2 fold change of tryptic peptide abundance, ligand vs vehicle (limited proteolysis) (log2 ratio); higher = more trypsin-susceptible (destabilized)
Conditions: ligand concentration: 20 uM; sample: mouse liver crude lysate; replicate design: treated separately

Target	log2 fold change
UniProt Q9WUD8 (peptide sequence: EGIIHTLIVDNR, peptide start residue: 161)	0.11
UniProt Q9R118 (peptide sequence: QPPVIVLQR, peptide start residue: 144)	0.319
UniProt Q9QZ49 (peptide sequence: YIENVLKPQQEMK, peptide start residue: 98)	-0.144
UniProt Q9QXK2 (peptide sequence: HQEFVHMYNAQCDALHPK, peptide start residue: 278)	-0.306
UniProt Q9R182 (peptide sequence: ILANGLLQLGHGLK, peptide start residue: 45)	0.253
UniProt Q9QZB7 (peptide sequence: EYYNQTGR, peptide start residue: 376)	-0.403
UniProt Q9QXV3 (peptide sequence: ENASNNHDHDDITSGTPK, peptide start residue: 160)	0.528
UniProt Q9R112 (peptide sequence: RSPVADSAGWVDVDKETLQHK, peptide start residue: 306)	-0.145
UniProt Q9WV32 (peptide sequence: NSVSQISVLSGGK, peptide start residue: 327)	-0.239
UniProt Q9QYK7 (peptide sequence: IGLIQHLPK, peptide start residue: 74)	0.176
UniProt Q9R1Z8 (peptide sequence: MADGGGSPFLGR, peptide start residue: 406)	-0.211
UniProt Q9QXS1 (peptide sequence: SKVIYQSLEGAVQAGQLK, peptide start residue: 487)	-0.765
UniProt Q9WV89 (peptide sequence: IHLAEAAQR, peptide start residue: 357)	-0.0602
UniProt Q9WU03 (peptide sequence: TVWSTADDKEQLVK, peptide start residue: 234)	-0.0433
UniProt Q9WUP4 (peptide sequence: STFVSYPK, peptide start residue: 313)	-0.148
UniProt Q9R0Q4 (peptide sequence: ARADPTVESEEAFK, peptide start residue: 103)	-0.491
UniProt Q9QXM1 (peptide sequence: GRSEAAASATAALR, peptide start residue: 80)	0.818
UniProt Q9QZ23 (peptide sequence: FIPGKPVLETR, peptide start residue: 72)	0.184
UniProt Q9R0M6 (peptide sequence: SEHLIQTDTVNLHR, peptide start residue: 179)	0.0454
UniProt Q9WTP2 (peptide sequence: VVHCKPLDLK, peptide start residue: 136)	-0.0511

Some values from the results shown.
log2 fold change with UniProt Q9QXK2 (peptide sequence: HQEFVHMYNAQCDALHPK, peptide start residue: 278) is entered as -0.306
log2 fold change with UniProt Q9WUD8 (peptide sequence: EGIIHTLIVDNR, peptide start residue: 161) is entered as 0.11

Later entries

Target	log2 fold change
UniProt Q9WUM5 (peptide sequence: MGHAGAIIAGGKGGAKEK, peptide start residue: 297)	0.268
UniProt Q9QXT0 (peptide sequence: TDLCDHALHR, peptide start residue: 168)	0.0901
UniProt Q9WV85 (peptide sequence: EHYVELR, peptide start residue: 67)	0.0261
UniProt Q9QY24 (peptide sequence: ILQVLSDDGGPVKIGQLVK, peptide start residue: 18)	-0.571
UniProt Q9WUE4 (peptide sequence: TGMSYHELDER, peptide start residue: 358)	-0.146
UniProt Q9QXZ0 (peptide sequence: QVLDGGIIHHISGLR, peptide start residue: 2491)	-0.393
UniProt Q9QZU9 (peptide sequence: IYHPNVR, peptide start residue: 74)	-0.254
UniProt Q9WV69 (peptide sequence: TSLPHFHHPETTRPDSNIYK, peptide start residue: 123)	-0.205
UniProt Q9R0E1 (peptide sequence: LTHYHEGLPTTR, peptide start residue: 718)	0.318
UniProt Q9R0E2 (peptide sequence: VGEDYEGGGCR, peptide start residue: 672)	0.389
UniProt Q9QYC7 (peptide sequence: AAPRPSASCVYKR, peptide start residue: 335)	-0.322
UniProt Q9R1Q7 (peptide sequence: HTAAPTDPTDGP, peptide start residue: 141)	-0.0126
UniProt Q9QXP6 (peptide sequence: FGILSNCNHTYCLK, peptide start residue: 299)	0.273
UniProt Q9R194 (peptide sequence: LHDNPALLAAVR, peptide start residue: 33)	-0.353
UniProt Q9R088 (peptide sequence: ILTPENWK, peptide start residue: 260)	-0.1
UniProt Q9WTR5 (peptide sequence: INENTGSVSVTR, peptide start residue: 190)	0.296
UniProt Q9QYX7 (peptide sequence: RMCRTNTMAR, peptide start residue: 3678)	-0.0722
UniProt Q9QZD9 (peptide sequence: GHFGPINSVAFHPDGK, peptide start residue: 283)	0.342
UniProt Q9QY81 (peptide sequence: KASPPSGLWSPAYASH, peptide start residue: 1871)	-0.199
UniProt Q9R1Q9 (peptide sequence: LGASPLHVDLATLK, peptide start residue: 146)	-0.194
